Test results taken from publication PMC3398014.
No constants are given. Whether binding was seen depends on the method and setting. Binding seen in cells or lysates may run through a third protein. Some entries that bind do so weakly or less than the wild type.

The chains behind the UniProt entries cited, without tags or fusion partners. Residues count along the entry.
UniProt Q61526, residues 20-1339: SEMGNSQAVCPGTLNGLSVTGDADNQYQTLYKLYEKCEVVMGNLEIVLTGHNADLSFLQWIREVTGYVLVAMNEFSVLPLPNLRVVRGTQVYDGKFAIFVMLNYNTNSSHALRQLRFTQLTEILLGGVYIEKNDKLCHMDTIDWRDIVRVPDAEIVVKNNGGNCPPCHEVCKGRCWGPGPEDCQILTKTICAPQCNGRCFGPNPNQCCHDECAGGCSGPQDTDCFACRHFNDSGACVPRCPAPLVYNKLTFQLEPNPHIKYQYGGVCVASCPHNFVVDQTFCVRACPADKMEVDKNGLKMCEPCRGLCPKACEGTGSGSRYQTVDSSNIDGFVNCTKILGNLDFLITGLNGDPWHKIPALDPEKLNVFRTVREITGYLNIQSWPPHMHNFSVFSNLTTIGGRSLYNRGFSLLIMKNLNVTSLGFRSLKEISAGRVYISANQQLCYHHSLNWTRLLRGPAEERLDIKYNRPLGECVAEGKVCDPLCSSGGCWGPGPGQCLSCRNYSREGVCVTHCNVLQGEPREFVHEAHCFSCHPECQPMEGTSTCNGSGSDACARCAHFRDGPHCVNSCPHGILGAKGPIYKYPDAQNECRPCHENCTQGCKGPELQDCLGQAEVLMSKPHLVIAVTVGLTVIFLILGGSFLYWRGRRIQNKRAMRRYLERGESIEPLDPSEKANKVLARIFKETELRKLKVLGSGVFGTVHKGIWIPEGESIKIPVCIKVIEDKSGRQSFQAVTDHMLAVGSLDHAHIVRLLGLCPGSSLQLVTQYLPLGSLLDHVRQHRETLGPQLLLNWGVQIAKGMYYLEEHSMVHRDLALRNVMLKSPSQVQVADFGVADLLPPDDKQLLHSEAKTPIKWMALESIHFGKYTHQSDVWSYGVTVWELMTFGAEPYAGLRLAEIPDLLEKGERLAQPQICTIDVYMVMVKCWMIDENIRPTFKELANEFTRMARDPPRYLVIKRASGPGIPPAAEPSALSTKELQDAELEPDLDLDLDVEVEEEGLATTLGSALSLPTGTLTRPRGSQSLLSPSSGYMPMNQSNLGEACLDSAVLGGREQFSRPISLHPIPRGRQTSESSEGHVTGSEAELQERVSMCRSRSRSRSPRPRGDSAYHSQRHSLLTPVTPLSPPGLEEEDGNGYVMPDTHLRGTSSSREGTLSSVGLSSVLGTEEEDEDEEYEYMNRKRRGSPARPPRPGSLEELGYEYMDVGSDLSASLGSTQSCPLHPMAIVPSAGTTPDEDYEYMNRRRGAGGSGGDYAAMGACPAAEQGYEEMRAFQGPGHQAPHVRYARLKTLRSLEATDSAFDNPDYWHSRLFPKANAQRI
UniProt P06494, residues 23-1257: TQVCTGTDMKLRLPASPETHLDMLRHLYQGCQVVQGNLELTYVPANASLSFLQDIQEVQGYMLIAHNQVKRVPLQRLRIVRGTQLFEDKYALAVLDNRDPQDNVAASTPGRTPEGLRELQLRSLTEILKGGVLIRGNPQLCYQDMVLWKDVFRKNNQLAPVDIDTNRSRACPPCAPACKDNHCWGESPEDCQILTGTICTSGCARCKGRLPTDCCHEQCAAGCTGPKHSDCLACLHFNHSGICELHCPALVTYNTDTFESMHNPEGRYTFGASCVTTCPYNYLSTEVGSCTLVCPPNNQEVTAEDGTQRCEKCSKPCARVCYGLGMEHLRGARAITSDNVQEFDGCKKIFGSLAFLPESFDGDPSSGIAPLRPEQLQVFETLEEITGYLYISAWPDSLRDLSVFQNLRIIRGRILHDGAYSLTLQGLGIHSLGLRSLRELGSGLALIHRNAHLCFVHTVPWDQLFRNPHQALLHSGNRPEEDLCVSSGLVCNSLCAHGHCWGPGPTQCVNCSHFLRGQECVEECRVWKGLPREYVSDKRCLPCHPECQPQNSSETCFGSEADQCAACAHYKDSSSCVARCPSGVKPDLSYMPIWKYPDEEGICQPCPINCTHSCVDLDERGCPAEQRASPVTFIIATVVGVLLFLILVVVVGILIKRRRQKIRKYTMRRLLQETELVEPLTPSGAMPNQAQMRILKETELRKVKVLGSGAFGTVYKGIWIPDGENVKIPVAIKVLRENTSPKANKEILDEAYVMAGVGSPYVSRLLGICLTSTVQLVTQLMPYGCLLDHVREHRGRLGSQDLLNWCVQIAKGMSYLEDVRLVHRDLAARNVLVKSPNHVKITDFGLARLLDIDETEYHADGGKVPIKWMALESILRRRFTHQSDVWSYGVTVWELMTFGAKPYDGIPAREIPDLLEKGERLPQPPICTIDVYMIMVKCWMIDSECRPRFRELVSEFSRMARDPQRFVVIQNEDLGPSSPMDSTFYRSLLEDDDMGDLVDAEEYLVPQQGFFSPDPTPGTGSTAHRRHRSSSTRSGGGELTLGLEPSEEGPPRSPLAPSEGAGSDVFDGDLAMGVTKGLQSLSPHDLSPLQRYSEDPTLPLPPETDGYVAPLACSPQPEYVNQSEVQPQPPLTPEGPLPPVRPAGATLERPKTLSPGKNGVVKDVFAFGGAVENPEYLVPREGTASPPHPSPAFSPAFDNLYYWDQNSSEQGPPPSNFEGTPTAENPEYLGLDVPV
UniProt Q62799, residues 20-1339: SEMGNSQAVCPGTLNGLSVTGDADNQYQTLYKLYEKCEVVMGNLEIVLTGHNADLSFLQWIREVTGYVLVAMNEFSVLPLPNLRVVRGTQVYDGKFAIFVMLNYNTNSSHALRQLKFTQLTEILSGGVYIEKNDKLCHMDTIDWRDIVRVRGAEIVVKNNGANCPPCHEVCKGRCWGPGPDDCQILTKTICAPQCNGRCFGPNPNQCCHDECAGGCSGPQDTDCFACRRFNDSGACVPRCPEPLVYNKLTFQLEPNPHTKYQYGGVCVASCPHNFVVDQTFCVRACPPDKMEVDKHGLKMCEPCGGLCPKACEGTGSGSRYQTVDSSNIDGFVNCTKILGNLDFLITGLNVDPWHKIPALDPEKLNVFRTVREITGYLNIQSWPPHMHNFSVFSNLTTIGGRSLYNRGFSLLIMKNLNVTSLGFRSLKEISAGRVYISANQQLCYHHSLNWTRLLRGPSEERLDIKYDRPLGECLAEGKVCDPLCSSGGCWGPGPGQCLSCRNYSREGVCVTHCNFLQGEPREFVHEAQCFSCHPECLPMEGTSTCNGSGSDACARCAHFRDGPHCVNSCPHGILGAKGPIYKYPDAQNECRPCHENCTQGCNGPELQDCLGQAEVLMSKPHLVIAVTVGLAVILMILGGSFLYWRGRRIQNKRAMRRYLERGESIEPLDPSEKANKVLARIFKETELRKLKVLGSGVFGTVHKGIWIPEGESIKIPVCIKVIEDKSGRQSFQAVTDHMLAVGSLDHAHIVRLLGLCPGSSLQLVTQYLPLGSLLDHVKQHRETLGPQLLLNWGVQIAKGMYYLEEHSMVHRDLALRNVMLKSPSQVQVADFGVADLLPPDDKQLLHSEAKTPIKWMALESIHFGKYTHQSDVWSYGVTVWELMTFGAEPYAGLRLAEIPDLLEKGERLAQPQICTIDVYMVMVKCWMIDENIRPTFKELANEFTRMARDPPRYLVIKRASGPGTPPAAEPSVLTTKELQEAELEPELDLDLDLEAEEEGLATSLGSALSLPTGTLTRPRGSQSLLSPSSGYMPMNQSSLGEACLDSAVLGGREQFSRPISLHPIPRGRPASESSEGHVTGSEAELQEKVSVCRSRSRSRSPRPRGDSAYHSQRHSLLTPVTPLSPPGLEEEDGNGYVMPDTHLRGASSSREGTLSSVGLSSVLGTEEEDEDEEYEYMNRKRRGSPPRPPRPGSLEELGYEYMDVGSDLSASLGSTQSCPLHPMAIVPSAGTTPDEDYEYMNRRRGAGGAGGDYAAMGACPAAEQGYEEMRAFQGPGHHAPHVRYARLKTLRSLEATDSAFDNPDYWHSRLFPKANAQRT
UniProt P21860, residues 20-1342: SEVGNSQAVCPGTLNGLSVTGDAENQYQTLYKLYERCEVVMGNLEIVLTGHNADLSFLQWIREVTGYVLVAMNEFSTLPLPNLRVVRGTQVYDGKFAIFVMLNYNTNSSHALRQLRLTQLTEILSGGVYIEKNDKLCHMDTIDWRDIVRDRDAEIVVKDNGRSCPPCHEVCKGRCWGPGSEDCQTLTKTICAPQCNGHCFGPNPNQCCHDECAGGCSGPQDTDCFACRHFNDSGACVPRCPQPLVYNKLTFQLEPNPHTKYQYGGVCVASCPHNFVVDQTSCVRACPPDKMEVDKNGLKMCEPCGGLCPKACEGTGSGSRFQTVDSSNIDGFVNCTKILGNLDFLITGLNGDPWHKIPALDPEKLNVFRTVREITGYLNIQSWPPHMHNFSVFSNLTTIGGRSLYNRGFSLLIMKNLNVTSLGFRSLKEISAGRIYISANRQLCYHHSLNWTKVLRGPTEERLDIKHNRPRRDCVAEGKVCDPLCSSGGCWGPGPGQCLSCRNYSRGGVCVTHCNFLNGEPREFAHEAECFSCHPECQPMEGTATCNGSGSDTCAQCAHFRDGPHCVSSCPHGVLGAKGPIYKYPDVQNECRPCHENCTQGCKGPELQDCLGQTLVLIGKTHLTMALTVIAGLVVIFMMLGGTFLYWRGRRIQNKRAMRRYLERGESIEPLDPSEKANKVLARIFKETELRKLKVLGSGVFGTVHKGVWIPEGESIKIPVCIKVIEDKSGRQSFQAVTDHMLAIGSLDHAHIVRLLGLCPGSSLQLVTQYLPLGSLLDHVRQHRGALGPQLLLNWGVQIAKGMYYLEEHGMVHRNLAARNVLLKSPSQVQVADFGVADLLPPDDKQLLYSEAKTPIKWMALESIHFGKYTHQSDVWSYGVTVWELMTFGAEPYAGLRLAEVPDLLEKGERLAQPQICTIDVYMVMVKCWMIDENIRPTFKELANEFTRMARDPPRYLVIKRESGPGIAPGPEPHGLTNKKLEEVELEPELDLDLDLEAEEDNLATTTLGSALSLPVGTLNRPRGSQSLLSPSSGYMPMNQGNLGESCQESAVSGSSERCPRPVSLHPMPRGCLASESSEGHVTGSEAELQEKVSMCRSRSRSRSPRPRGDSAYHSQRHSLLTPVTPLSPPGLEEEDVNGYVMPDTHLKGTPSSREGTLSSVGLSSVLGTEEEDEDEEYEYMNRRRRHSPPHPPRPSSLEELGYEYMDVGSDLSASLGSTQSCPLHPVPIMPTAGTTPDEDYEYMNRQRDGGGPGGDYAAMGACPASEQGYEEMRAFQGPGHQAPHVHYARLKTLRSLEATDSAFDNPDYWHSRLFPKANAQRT
UniProt P11627, residues 20-1260: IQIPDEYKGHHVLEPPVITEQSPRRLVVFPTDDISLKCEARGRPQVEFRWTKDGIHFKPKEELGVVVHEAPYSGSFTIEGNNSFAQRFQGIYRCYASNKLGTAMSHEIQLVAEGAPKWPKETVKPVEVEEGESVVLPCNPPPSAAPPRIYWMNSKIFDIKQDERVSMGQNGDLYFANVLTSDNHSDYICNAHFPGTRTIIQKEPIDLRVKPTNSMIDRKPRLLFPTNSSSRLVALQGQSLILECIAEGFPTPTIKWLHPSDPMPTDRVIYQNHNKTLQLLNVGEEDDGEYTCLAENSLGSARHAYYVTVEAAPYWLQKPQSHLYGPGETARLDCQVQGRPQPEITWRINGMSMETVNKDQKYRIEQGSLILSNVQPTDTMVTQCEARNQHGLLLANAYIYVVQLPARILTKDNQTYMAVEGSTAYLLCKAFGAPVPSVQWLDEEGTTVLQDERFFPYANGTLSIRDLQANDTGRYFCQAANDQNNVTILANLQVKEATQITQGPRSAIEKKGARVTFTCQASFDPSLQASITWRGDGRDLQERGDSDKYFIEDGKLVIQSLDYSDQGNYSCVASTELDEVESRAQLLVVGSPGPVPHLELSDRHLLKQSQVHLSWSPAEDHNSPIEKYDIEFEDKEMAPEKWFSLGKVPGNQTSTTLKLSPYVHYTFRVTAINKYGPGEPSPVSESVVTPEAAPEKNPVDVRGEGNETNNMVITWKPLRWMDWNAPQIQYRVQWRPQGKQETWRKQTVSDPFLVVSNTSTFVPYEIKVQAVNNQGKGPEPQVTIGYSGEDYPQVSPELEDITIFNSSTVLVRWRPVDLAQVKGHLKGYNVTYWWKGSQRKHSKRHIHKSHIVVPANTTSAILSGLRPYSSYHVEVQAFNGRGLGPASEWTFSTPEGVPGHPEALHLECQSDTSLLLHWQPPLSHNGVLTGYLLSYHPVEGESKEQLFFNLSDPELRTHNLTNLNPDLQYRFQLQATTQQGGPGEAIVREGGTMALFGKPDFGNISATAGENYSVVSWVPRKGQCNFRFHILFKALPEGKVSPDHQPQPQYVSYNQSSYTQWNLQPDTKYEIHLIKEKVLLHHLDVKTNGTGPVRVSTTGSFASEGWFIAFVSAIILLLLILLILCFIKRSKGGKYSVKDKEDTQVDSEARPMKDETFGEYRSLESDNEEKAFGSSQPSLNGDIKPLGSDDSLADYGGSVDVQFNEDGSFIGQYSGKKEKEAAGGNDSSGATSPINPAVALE

Legend:
[1] = target: erbB3 of E14 mouse brain (mouse (endogenous in E14 mouse brain)) (UniProt Q61526); assay: proximity ligation; Duolink In Situ on E14 mouse brain free-floating sections; mouse anti-L1CAM and rabbit anti-erbB3
[2] = target: erbB2 receptor of P2 rat brain (rat (endogenous in P2 rat brain)) (UniProt P06494); assay: co-IP; whole brains of P2 rats, extract cross-linked with DTBP (3 mM, 45 min) before IP; IP with anti-erbB3 or anti-erbB2, blot with anti-L1CAM; non-specific anti-IgG as control
[3] = target: erbB3 of P2 rat brain (rat (endogenous in P2 rat brain)) (UniProt Q62799); assay: as above
[4] = target: human L1CAM (isoform 2) (human) (UniProt P32004); assay: co-IP; HEK293 cells co-transfected; lysis in 50 mM Tris, 150 mM NaCl, 2 mM EDTA, 0.5% Triton X-100; antibody-loaded protein A-Sepharose, 3 h on ice; western blot of the partner; done in both directions
erbB3 receptor [5] = target: erbB3 receptor (UniProt P21860); assay: proximity ligation; Duolink In Situ on fixed HEK293 cells transfected with pcDNA3-L1CAM, pcDNA3-erbB3 and pEGFP; mouse anti-L1CAM and rabbit anti-erbB3; non-transfected cells as negative control
[6] = target: human EGFR with a myc epitope (human) (UniProt P00533); assay: co-IP; HEK293 cells co-transfected; lysis in 50 mM Tris, 150 mM NaCl, 2 mM EDTA, 0.5% Triton X-100; antibody-loaded protein A-Sepharose, 3 h on ice; western blot of the partner; done in both directions
erbB2 receptor = erbB2 receptor (UniProt P04626); assay: as above
erbB3 receptor [7] = target: erbB3 receptor (UniProt P21860); assay: as above

With “L1CAM of E14 mouse brain (from UniProt P11627 20-1260)” as the substance, how does the binding [1] read?
Its binding is “binds”.

Which results are given for “endogenously expressed L1CAM of P2 rat brain (from UniProt Q05695 20-1259)”?
binding [2]: binds; binding [3]: binds

For “erbB2 receptor (from UniProt P04626 23-1255)”, which binding [4] is on record?
The binding was “binds”.

With “erbB3 receptor (from UniProt P21860 20-1342)” as the substance, how does the binding [4] read?
Its binding is “binds”.

Which binding [4] does the source give for “human EGFR with a myc epitope (from UniProt P00533 25-1210) (receptor)” here?
The binding was “binds”.

For “human L1CAM (isoform 2) (from UniProt P32004-2 20-1253)”, which binding (erbB3 receptor [5]) is on record?
The binding was “binds”.

What about the binding [6] of the same substance?
The binding was “binds”.

What about the binding (erbB2 receptor) of the same substance?
Its binding is “binds”.

What about the binding (erbB3 receptor [7]) of the same substance?
The binding was “binds”.
